This passage reports T/C and survivor count results from PubChem BioAssay AID330 (DTP/NCI, 2004).

The list does not hold the whole screen: it gathers tests that were run many times, whatever their T/C, doses with no T/C, and many T/C values between a quarter and a half above the control. Further doses and runs are listed elsewhere. T/C: endpoint of the treated group in % of that of the vehicle group. Some doses have a count of surviving animals in place of a T/C: the source files T/C as zero there, which appears to mark a toxic dose or a test without result, not a measured value. Some doses without a T/C left all or most animals alive at the check, yet need not have been tolerated: the source hardly ever lists a survival T/C far under the control, and the zero likely stands for such cases as well. Survivors were counted at the toxicity check, usually on the fifth day, unless a day is given; later deaths do not show. Schedules are NCI's codes, read here as Q, the interval in days (D) or hours (H), X, the number of doses. Some entries hold several experiments; their values stand side by side, smallest first. Where survival is the endpoint, this PubChem deposit counts one and a half times the control or more as active, and values a quarter to a half above the control carry no call in these data; other NCI protocols may use other cut-offs. Some T/C values are followed by the survivors on the day toxicity was checked, most often the fifth; where none is given, no animal had died by that day.

For this assay, the system named is P388 leukemia ip, CD2F1 mice, survival T/C. As to the kind of experiment: NCI In Vivo Anticancer Drug Screen. Data for tumor model P388 Leukemia (intraperitoneal) in CD2F1 (CDF1) mice. To be noted: T/C endpoint: median survival time, higher T/C = longer survival.
The mark [1] stands for this setting: dose: 100.0 mg/kg/injection, schedule: Q01DX009 (ip), vehicle: saline.
[2] abbreviates: dose: 200.0 mg/kg/injection, schedule: Q01DX009 (ip), vehicle: saline.
Setting [3] is: dose: 50.0 mg/kg/injection, schedule: Q01DX009 (ip), vehicle: Klucel (hydroxypropylcellulose) (HPC).
Setting [4] is: dose: 200.0 mg/kg/injection, schedule: Q01DX009 (ip), vehicle: Klucel (hydroxypropylcellulose) (HPC).
The mark [5] stands for this setting: dose: 200.0 mg/kg/injection, schedule: Q01DX005 (ip), vehicle: saline.
[6] abbreviates: dose: 200.0 mg/kg/injection, schedule: Q01DX005 (ip), vehicle: saline with Tween-80.
Setting [7] is: dose: 100.0 mg/kg/injection, schedule: Q01DX009 (ip), vehicle: Klucel (hydroxypropylcellulose) (HPC).
Where [8] appears, read: dose: 100.0 mg/kg/injection, schedule: Q01DX009 (ip), vehicle: saline with Tween-80.
Setting [9] is: dose: 600.0 mg/kg/injection, schedule: Q01DX009 (ip), vehicle: saline.
[10] abbreviates: dose: 200.0 mg/kg/injection, schedule: Q01DX009 (ip), vehicle: gum acacia.
[11] abbreviates: dose: 400.0 mg/kg/injection, schedule: Q04DX003 (ip), vehicle: saline.
The mark [12] stands for this setting: dose: 200.0 mg/kg/injection, schedule: Q01DX009 (ip), vehicle: saline with Tween-80.
Where [13] appears, read: dose: 400.0 mg/kg/injection, schedule: Q01DX009 (ip), vehicle: saline.
[14] abbreviates: dose: 200.0 mg/kg/injection, schedule: Q04DX003 (ip), vehicle: saline with Tween-80.

Consider `COc1cc2c(c(OC)c1O)-c1ccc(SC)c(=O)cc1C(NC(C)=O)CC2` (configuration not stated), for which the T/C reads like this: (dose: 2.5 mg/kg/injection, schedule: Q01DX009 (ip), vehicle: saline) 135 % of control; (dose: 5.0 mg/kg/injection, schedule: Q01DX009 (ip), vehicle: saline) 135 % of control; (dose: 5.0 mg/kg/injection, schedule: Q01DX009 (ip), vehicle: water) 136 % of control; (dose: 10.0 mg/kg/injection, schedule: Q01DX009 (ip), vehicle: saline) 136 % of control; (dose: 10.0 mg/kg/injection, schedule: Q01DX009 (ip), vehicle: water) 148 % of control; (dose: 20.0 mg/kg/injection, schedule: Q01DX009 (ip), vehicle: water) 139 % of control [5 of 6 alive]. The survivor count (dose: 40.0 mg/kg/injection, schedule: Q01DX009 (ip), vehicle: water) was 6 of 6.

`COc1cc2c(cc1OC)-c1cc(C)c3cc(OC)c(OC)cc3[n+]1CC2`: the survivor count (dose: 400.0 mg/kg/injection, schedule: Q01DX009 (ip), vehicle: water) was 4 of 6.

Consider `C[N+]1(C2CCCCC2c2cccc(O)c2)CCCC1` (configuration not stated), for which the survivor count is 0 of 6 (dose: 3.12 mg/kg/injection, schedule: Q01DX009 (ip), vehicle: saline); 0 of 6 (dose: 6.25 mg/kg/injection, schedule: Q01DX009 (ip), vehicle: saline); 0 of 6 (dose: 12.5 mg/kg/injection, schedule: Q01DX009 (ip), vehicle: saline); 0 of 6 (dose: 50.0 mg/kg/injection, schedule: Q01DX009 (ip), vehicle: saline); 0 of 6 under setting [1]; 0 of 6 under setting [2].

For `O=[N+]([O-])c1ccc(Cl)nc1Sc1ncccn1`, the survivor count by setting is: under setting [3], 5 of 6; under setting [4], 0 of 6.

`NC(N)=NCCSCc1ccc2ccccc2n1`: under setting [5], the survivor count is on record as 0 of 5.

On to `C=C1C[C@@H](C2OC3OC(C)(C)OC3C2OCc2ccccc2)OC1=O` (some centres not stated), for which the T/C under setting [6] was 125 % of control.

In the case of `CCCCCCCCCCCC[N+]1([O-])CCCCCC1`, the survivor count is reported as 2 of 6 under setting [1] and 0 of 6 under setting [2].

As to `C/C(=C/c1cc2c(cc1Br)OCO2)[N+](=O)[O-]`, the survivor count (dose: 400.0 mg/kg/injection, schedule: Q04DX003 (ip), vehicle: saline with Tween-80) was 0 of 6.

Take `O=C1C=C(N2CC2)C(=O)C(N2CC2)=C1N1CC1`: the T/C (dose: 0.02 mg/kg/injection, schedule: Q01DX005 (ip), vehicle: saline) is 144 and 146 % of control. Besides, the survivor count (dose: 0.32 mg/kg/injection, schedule: Q01DX005 (ip), vehicle: saline) was 9 of 10 and 6 of 6.

As to `CCOP(=S)(OCC)OC(=O)C(C)SSC` (configuration not stated) (tested in a mixture with another compound), under “dose: 240.0 mg/kg/injection, schedule: Q01DX005 (ip), vehicle: saline with Tween-80”, the survivor count is given as 0 of 6.

As for `C/C=C1\CNC2Cc3c([nH]c4ccccc34)C(c3c(OC)ccc4c5c([nH]c34)C3(C(=O)OC)CC4CC(CC)C3N(CC5)C4)CC1C2C(=O)OC` (configuration not stated), the survivor count (dose: 6.25 mg/kg/injection, schedule: Q01DX009 (ip), vehicle: saline with Tween-80) is given as 4 of 4.

As to `ClC(Cl)(Cl)C1=NCc2nnn(Cc3ccccc3)c2N1`, the T/C runs as follows: under setting [7], 127 % of control; under setting [8], 126 % of control.

As for `CSCCCNCc1ccc([N+](=O)[O-])cc1`, under setting [5], the survivor count is reported as 0 of 6.

Consider `O=C(NNS(=O)(=O)CCC(NC(=O)OCc1ccccc1)C(=O)OCc1ccccc1)OCc1ccccc1` (configuration not stated), for which the survivor count (dose: 200.0 mg/kg/injection, schedule: Q01DX009 (ip), vehicle: other) is 6 of 6.

With `CC(=O)Oc1cccn(C)c1=O`, under setting [9], the T/C was 135 [5 of 6 alive] and 144 % of control. For the setting “dose: 800.0 mg/kg/injection, schedule: Q01DX009 (ip), vehicle: saline”, the survivor count was 0 of 6.

Consider `CCCCCCCCCCCCCCCC(=O)N(C(C)CCCN(CC)CC)C(C)CCCN(CC)CC` (configuration not stated), for which the survivor count (dose: 25.0 mg/kg/injection, schedule: Q01DX009 (ip), vehicle: water) was 6 of 6.

Turning to `CC(=O)Oc1c(C)c(OC(C)=O)c2c(c1C(C)=O)OC1=CC(O)=C(C(C)=O)C(=O)C12C` (configuration not stated), under setting [10], the T/C is 144 % of control [5 of 6 alive] and the survivor count is on record as 3 of 6.

On to `C=CCNSc1ccccc1`, for which the survivor count under setting [3] is given as 0 of 6, the survivor count under setting [7] is 0 of 6 and the survivor count under setting [4] is 0 of 6.

`CCOC(Cn1cc([N+](=O)[O-])c(=O)[nH]c1=O)OCC`: the survivor count reads like this: (dose: 100.0 mg/kg/injection, schedule: Q01DX005 (ip), vehicle: Klucel (hydroxypropylcellulose) (HPC)) 3 of 6; (dose: 200.0 mg/kg/injection, schedule: Q01DX005 (ip), vehicle: Klucel (hydroxypropylcellulose) (HPC)) 0 of 6.

Take `O=[N+]([O-])c1ccc([Se]c2ncccn2)c([N+](=O)[O-])c1`: the survivor count under setting [11] is on record as 4 of 6.

Turning to `[Cl][Co][Cl].[NH-]CC[N-]CC[N-]CC[NH-]`, the survivor count is, setting by setting: (dose: 100.0 mg/kg/injection, schedule: Q01DX005 (ip), vehicle: saline) 4 of 6; under setting [5], 0 of 6 and 2 of 6; under setting [2], 1 of 6.

With `Cc1ccc(Oc2nc(=O)c3c(o2)CC(C)(C)C3)cc1`, under setting [8], the T/C was 133 % of control [5 of 6 alive]. For the same molecule, the survivor count under setting [12] was 0 of 6 and 3 of 6.

Take `NC(=N/C(=C/c1ccccc1)c1ccccc1)c1ccccc1`: the survivor count under setting [6] is reported as 2 of 5.

Turning to `CCNCC(=O)Nc1ccc2c(c1)C(=O)c1ccc(NC(=O)CNCC)cc1C2=O`, the T/C (dose: 100.0 mg/kg/injection, schedule: Q04DX002 (ip), vehicle: saline with Tween-80) is 130 % of control. For the same molecule, under “dose: 400.0 mg/kg/injection, schedule: Q04DX002 (ip), vehicle: saline with Tween-80”, the survivor count was 5 of 6 and 6 of 6.

Regarding `Oc1c(Cl)cc(Cl)cc1/C=N/NC(=S)Nc1cc(C(F)(F)F)cc(C(F)(F)F)c1`, the survivor count (dose: 200.0 mg/kg/injection, schedule: Q01DX009 (ip), vehicle: olive oil, sesame oil, peanut oil) was 6 of 6 and the survivor count (dose: 400.0 mg/kg/injection, schedule: Q01DX009 (ip), vehicle: olive oil, sesame oil, peanut oil) is 6 of 6.

For the molecule `COc1cc(N=Nc2ccc([N+](=O)[O-])cc2)c([OH+]C)cc1[N+]#N.COc1cc(N=Nc2ccc([N+](=O)[O-])cc2)c([OH+]C)cc1[N+]#N.[Cl][Zn][Cl]`, the T/C under setting [2] was 127 % of control. The survivor count under setting [13] is given as 2 of 6.

For `Brc1ccc(Nc2c3ccccc3nc3ccccc23)cc1`, under setting [14], the survivor count is 4 of 6.

As to `Cc1[nH]nc(C(N)=O)c1N=NN(C)C`, the T/C (dose: 25.0 mg/kg/injection, schedule: Q01DX009 (ip), vehicle: saline with Tween-80) is 145 % of control and the T/C under setting [14] was 145 % of control [5 of 6 alive]. The survivor count by setting is: under setting [8], 6 of 6; under setting [12], 4 of 6; (dose: 300.0 mg/kg/injection, schedule: Q04DX003 (ip), vehicle: saline with Tween-80) 6 of 6.

For the molecule `CC([OH2+])CNCCN.CC([OH2+])CNCCN.O=[N+]([O-])[O-].[Cu+2]` (configuration not stated), the survivor count is given as 0 of 6 under setting [1] and 0 of 6 under setting [2].

For `O/N=C(\C[P+](c1ccccc1)(c1ccccc1)c1ccccc1)c1ccccc1`, the survivor count is recorded as 3 of 6 under setting [3], 0 of 6 under setting [7] and 0 of 6 under setting [4].

`Cc1cccc(O)c1O`: the survivor count under setting [1] is given as 3 of 6, the survivor count under setting [13] is 0 of 6 and the survivor count under setting [9] is listed as 0 of 6.

As for `NN1CCCC1`, the survivor count under setting [11] is 4 of 6.
